Test results: PubChem BioAssay AID1964107 (National Center for Advancing Translational Sciences (NCATS), 2024)
The campaign covered roughly 31,000 compounds. About 360 (1.2%) were called active. The source calls these results inconclusive, neither active nor inactive. The call rests on the fitted dose curve.

molecular target: Polyprotein P1234 (Chikungunya virus (strain S27-African prototype)) (UniProt Q8JUX6); test: Primary qHTS for inhibitors of NSP2Pro chikungunya virus (CHIKV); conditions: FRET peptide cleavage, fluorescence 1 h; further: nearly all actives have a fitted effect of over 60% in size
Potency means the concentration at half of the fitted maximal effect.

**Q.** With `CN(C)C1(CNC(=O)c2ccc(C(C)(C)C)cc2)CCCCC1` as the compound, how does the Potency read?
**A.** inconclusive: 1.41 µM
